Test results: publication PMC9425028
These are yes or no findings as the source states them, for the method shown. A result given as binding can be weak or reduced; the word gives no strength.

Protein sequences, listed by entry. Tags and fused reporters are not part of them. Lines headed by an entry give the natural chain unless they say otherwise; changes in a name come on top. Chains listed by the source or under a name are the forms on record and can include a tag or linker.
wild-type recombinant mouse MASP-3 with ALFA tag (WT rmMASP-3-ALFA) (P98064-2, form named): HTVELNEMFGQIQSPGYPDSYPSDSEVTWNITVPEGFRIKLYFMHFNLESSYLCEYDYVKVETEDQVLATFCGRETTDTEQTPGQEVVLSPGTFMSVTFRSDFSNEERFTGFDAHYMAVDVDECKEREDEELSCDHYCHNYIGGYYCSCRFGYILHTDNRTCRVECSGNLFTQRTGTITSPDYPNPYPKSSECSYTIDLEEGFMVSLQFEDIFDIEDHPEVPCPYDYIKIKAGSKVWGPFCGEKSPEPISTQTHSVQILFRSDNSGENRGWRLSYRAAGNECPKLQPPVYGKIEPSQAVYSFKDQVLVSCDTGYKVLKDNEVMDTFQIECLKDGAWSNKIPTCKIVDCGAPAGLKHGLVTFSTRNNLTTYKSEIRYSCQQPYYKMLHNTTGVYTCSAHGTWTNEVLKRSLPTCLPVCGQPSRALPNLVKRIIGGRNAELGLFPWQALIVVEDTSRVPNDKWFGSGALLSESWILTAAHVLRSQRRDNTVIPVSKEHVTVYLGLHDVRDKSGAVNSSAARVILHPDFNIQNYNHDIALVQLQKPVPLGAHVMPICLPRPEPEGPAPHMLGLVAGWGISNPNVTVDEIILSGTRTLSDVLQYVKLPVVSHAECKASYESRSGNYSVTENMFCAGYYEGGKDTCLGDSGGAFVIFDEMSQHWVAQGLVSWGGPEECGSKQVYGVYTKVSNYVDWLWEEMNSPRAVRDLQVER

Biological target: D102A mutant recombinant mouse MASP-3 fused with PA-tag (mouse) (UniProt P98064)
Experiment: ELISA; sandwich ELISA: 10 ug each of rmMASP-3-PA and rmMASP-3-ALFA mixed, dialysed against TBS/10 mM EDTA 24 h at 4°C, then against TBS/5 mM CaCl2 24 h at 4°C; 0.14 uM of each, serially diluted in 20% Blocking One in TBS/Ca; captured on anti-PA tag antibody, 30 min room temperature; detected with HRP-conjugated anti-ALFA nanobody; both purified

binding: binds
Substance: wild-type recombinant mouse MASP-3 with ALFA tag (WT rmMASP-3-ALFA) (from UniProt P98064-2 25-733) (enzyme)
